Data as given in paper PMC10653806.
No constants are given. Whether binding was seen depends on the method and setting. Binding seen in cells or lysates may run through a third protein. Where a sequence is shown, tags or fusion partners need not be part of it.

Sequences of proteins named here, by UniProt entry; tags and fusion partners are left off.
UniProt P38432: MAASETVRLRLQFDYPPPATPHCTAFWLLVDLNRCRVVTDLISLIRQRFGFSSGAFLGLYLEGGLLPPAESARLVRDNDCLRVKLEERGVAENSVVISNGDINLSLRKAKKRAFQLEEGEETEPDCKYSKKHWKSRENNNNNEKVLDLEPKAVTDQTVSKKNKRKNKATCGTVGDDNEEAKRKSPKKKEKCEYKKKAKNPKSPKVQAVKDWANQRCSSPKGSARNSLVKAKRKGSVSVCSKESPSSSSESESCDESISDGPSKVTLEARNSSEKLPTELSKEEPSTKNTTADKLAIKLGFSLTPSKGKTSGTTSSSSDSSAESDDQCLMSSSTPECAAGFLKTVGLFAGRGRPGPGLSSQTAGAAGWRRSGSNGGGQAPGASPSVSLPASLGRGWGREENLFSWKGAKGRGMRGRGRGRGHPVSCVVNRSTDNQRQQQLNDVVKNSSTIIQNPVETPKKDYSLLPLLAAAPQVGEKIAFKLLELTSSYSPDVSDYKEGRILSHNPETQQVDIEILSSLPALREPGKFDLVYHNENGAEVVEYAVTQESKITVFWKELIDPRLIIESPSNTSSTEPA

Key:
[1] = biological target: T1, FLAG-tagged L4-33K (human adenovirus 5) (UniProt P24940); assay: co-IP; lysates of 293T cells co-transfected with Myc-tagged p80-coilin and Flag-tagged 22K or 33K plasmids; […] Fab-Trap Agarose or Myc-Trap Agarose beads; Western blot with anti-myc or anti-FLAG
T1 sequence: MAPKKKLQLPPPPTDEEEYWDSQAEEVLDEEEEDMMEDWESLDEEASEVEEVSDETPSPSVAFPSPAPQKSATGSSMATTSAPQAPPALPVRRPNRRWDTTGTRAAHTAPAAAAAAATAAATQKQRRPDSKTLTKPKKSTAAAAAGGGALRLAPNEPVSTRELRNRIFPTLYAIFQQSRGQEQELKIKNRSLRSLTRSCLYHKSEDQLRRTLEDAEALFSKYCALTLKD

[2] = biological target: Myc-tagged human p80-coilin (human) (UniProt P38432); assay: as above

## Myc-tagged human p80-coilin (from UniProt P38432 1-576)
[1]
  binding: no binding

B1: FLAG-tagged L4-33K (protein, UniProt P24940 1-229)
chain: T1 sequence
[2]
  binding: no binding
